Results taken from PubChem BioAssay AID651768 (National Center for Advancing Translational Sciences (NCATS), 2012).
Among all 360,000 compounds or so, about 1,700 (0.47%) were called active. Inconclusive means that the source gave no clear call. Such entries were picked first, then a sample of the others. The call rests on the fitted dose curve; in most records, active means well fitted inhibition curve with a large enough effect; inconclusive means small, poorly fitted or top-dose-only effect; inactive means no such curve, though single readings can be large or run the other way. Potencies of inconclusive entries are doubtful fits and often do not repeat.

The chains behind the UniProt entries cited, without tags or fusion partners.
UniProt Q14191, whole entry, looked up: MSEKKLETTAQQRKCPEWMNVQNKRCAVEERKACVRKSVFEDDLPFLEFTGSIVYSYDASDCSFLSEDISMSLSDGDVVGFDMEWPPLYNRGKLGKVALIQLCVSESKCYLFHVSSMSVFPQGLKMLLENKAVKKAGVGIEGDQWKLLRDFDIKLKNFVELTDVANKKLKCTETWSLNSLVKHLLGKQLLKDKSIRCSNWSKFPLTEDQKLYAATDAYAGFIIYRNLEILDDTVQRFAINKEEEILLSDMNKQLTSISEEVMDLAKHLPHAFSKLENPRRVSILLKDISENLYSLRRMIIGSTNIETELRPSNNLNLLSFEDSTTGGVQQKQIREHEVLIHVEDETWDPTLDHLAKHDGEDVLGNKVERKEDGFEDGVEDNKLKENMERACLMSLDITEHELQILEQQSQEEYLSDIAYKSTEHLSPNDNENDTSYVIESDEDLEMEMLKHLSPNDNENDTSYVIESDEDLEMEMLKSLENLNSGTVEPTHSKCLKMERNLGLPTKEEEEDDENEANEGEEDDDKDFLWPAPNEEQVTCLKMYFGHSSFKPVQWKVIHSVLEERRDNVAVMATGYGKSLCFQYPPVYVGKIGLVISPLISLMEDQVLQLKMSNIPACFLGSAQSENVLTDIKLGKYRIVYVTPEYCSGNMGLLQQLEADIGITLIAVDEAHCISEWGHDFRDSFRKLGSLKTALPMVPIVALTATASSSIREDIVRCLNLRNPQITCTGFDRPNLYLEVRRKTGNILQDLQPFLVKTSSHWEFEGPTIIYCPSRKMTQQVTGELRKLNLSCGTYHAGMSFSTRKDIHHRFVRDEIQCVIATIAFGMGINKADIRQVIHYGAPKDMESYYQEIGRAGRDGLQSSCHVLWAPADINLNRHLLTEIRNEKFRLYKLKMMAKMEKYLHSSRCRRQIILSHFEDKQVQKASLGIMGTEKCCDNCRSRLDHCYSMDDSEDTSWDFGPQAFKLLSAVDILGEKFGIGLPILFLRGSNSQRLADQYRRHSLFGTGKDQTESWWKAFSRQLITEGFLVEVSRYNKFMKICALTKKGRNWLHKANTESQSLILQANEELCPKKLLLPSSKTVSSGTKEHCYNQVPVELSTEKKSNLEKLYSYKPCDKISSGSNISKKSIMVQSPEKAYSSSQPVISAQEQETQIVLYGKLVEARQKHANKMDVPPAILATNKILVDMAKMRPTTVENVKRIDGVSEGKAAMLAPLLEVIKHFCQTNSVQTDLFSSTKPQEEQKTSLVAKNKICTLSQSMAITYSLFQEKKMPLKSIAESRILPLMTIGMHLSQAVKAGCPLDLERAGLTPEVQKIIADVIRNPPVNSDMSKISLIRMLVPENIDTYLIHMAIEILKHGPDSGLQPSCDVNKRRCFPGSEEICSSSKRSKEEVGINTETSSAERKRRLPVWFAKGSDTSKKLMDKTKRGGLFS

Target: Bifunctional 3'-5' exonuclease/ATP-dependent helicase WRN (Homo sapiens) (UniProt Q14191)
Test: qHTS for Inhibitors of WRN Helicase; further: nearly all actives have a fitted effect of over 55% in size
Settings: WRN helicase unwinding, fluorescent forked duplex, kinetic; activity change, negative = inhibition: at 114 µM (top of the series) unless noted
Method in brief: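 Primary qHTS, 1536-well format. 20 nM WRN + compound, 15 min RT; start with 100 nM forked fluorophore/quencher duplex, 2 mM ATP (final); kinetic read ex 525/em 598 nm.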
On the % scale 0 is the no-effect control and ±100 the full control effect; potency means the concentration at half of the fitted maximal effect.

Compound	Potency	activity change, negative = inhibition
COc1cccc(NC(=O)CN(C)C(=O)c2ccc(S(=O)(=O)Nc3ccccc3F)cc2)c1	inconclusive: 17.8 µM [inhibitor, full curve, poor fit]	–
C#CCn1c(=NC(=O)c2ccc(S(=O)(=O)N3CCCc4ccccc43)cc2)sc2cc(S(N)(=O)=O)ccc21	inconclusive: 11.2 µM [inhibitor, partial curve]	–
Cc1ccc(S(=O)(=O)CS(=O)(=O)c2ccc(C)cc2)cc1	inconclusive: 20 µM [inhibitor, single point]	–
Cc1c(NC(=O)C(C)OC(=O)c2ccc([N+](=O)[O-])s2)c(=O)n(-c2ccccc2)n1C (stereo not drawn)	–	inactive: -0.21% [at 11.6 µM]
CC1(OC(=O)c2ccco2)C(=O)C=C2C=C(C3CC3)OC=C2C1=O (stereo not drawn)	inconclusive: 50.1 µM [inhibitor, partial curve]	–
Cc1ccc2nc(-c3ccc(N4C(=NC(=O)CCC(=O)O)SC5CS(=O)(=O)CC54)cc3)sc2c1 (stereo not drawn)	inconclusive: 56.2 µM [inhibitor, partial curve]	–
Cc1ccccc1N1CCN(C(=O)c2ccccc2NC(=O)c2ccccc2C(=O)O)CC1	inactive	–
N#Cc1cccc(N=c2ssnc2Cl)c1	active: 25.1 µM	–
C=CCNC(=O)c1onc(CSc2cccc(OC)c2)c1C(=O)O	inactive	–
COc1cccc(/C=N/Nc2snc(SC)c2C#N)c1O	active: 50.1 µM	–
C=C(CN(C)C)C(=O)c1ccc(OC2OC(COC(C)=O)C(OC(C)=O)C(OC(C)=O)C2OC(C)=O)cc1 (stereo not drawn)	inconclusive: 14.1 µM [inhibitor, single point]	–
COc1ccc(/C=C2\SC(=S)N(CCCC(=O)Nc3ccc(C(=O)O)cc3)C2=O)cc1OC	inconclusive: 50.1 µM [inhibitor, partial curve]	–
NS(=O)(=O)c1ccc(O)c(NC(=O)c2ccc([N+](=O)[O-])o2)c1	inconclusive: 50.1 µM [inhibitor, partial curve]	–
N#Cc1ccc(S(=O)(=O)N2CCCCC2c2cc(C(=O)NCc3cccnc3)no2)cc1 (stereo not drawn)	inactive	–
C=Cc1ccc(CC2(C)C(=O)Nc3ccc(-c4cccnc4)cc32)cc1 (stereo not drawn)	inactive	–
Cc1ccccc1OCC(=O)OCC(=O)NCc1ccco1	inactive	–
COc1ccc(-c2csc3nc(-c4ccc(C)cc4)oc(=O)c23)cc1OC	inconclusive: 4.74 µM [inhibitor, partial curve]	–
O=C(COC(=O)c1cc(S(=O)(=O)N2CCc3ccccc3C2)ccc1Cl)NCc1ccco1	inconclusive: 79.4 µM [inhibitor, single point]	–
CCOC(=O)C(CCCCCCP(=O)(c1ccccc1)c1ccccc1)NC(C)=O (stereo not drawn)	inconclusive: 3.55 µM [inhibitor, full curve, poor fit]	–
O=C1CC(c2ccco2)Sc2nc3ccccc3n21 (stereo not drawn)	inconclusive: 56.2 µM [inhibitor, partial curve]	–
Cn1c(SCC(=O)N/N=C/C=C\c2ccco2)nc2ccccc21	inconclusive: 39.8 µM [inhibitor, partial curve]	–
Cc1c(C(=O)O)cccc1-c1ccc(/C=N/Nc2ccc(Br)cc2)o1	inconclusive: 50.1 µM [inhibitor, partial curve]	–
Cn1c(=O)c(Nc2ccc(O)cc2)c2c3c(cccc31)C(=O)c1ccccc1-2	inconclusive: 50.1 µM [inhibitor, single point]	–

One compound at a time, as listed above:
COc1cccc(/C=N/Nc2snc(SC)c2C#N)c1O in the list: Potency: active: 50.1 µM
CC1(OC(=O)c2ccco2)C(=O)C=C2C=C(C3CC3)OC=C2C1=O (stereo not drawn) in the list: Potency: inconclusive: 50.1 µM [inhibitor, partial curve]

Later entries.

Compound	Potency	activity change, negative = inhibition
O=[N+]([O-])c1ccccc1C1Nc2cccc3cccc(c23)N1	inconclusive: 70.8 µM [inhibitor, partial curve, poor fit]	–
O=C1CC(SC(=S)C2CCCC2=O)C(=O)N1 (stereo not drawn)	active: 35.5 µM	–
COC(=O)c1sccc1S(=O)(=O)NC(C)c1cnn(-c2ccc(OC)cc2)c1C (stereo not drawn)	inconclusive: 89.1 µM [inhibitor, single point]	–
CNC(=O)CSc1nnc(-c2ccc(S(=O)(=O)N3CCCC3)cc2)n1-c1cccc(C)c1C	inactive	–
CC(=O)c1ccc(NC(=O)c2ccc3nc(-c4ccco4)c(-c4ccco4)nc3c2)cc1	active: 25.1 µM	–
O=c1nc(SCc2ccc(Cl)cc2)nc(-c2ccccc2)[nH]1	inconclusive: 22.4 µM [inhibitor, full curve, poor fit]	–
O=C(NCc1ccco1)C1c2ccccc2Oc2ccccc21	–	inconclusive: -37.3% [inhibitor] [at 57.1 µM]
Oc1ccc(-c2cn3c(n2)SCC3)cc1O	active: 4.74 µM	–
CCOC(=O)c1ccc(N2N=C(C)/C(=C/C=C/c3ccco3)C2=O)cc1	inactive	–
CCc1ccccc1NC(=O)CN(C)Cc1c(O)ccc2ccccc12	inconclusive: 79.4 µM [inhibitor, partial curve]	–
Cc1cc2c(cc1C)-n1nnnc1C(N1CCCNCC1)C(=O)N2 (stereo not drawn)	inactive	–
O=C1C=C(NCc2ccccc2)c2ccccc2C1=O	inconclusive: 50.1 µM [inhibitor, partial curve]	–
COc1ccc(NS(=O)(=O)c2ccc3c(c2)[C@H]2C=CC[C@H]2[C@@H](c2ccc(C(=O)O)cc2)N3)cc1	active: 39.8 µM	–
CCOc1cc(/C=N/NC(N)=O)cc(Br)c1OCc1ccccc1F	inconclusive: 10 µM [inhibitor, partial curve]	–
C=CS(=O)(=O)c1c2cc(OC)ccc2nc2ccc(OC)cc12	inconclusive: 14.1 µM [inhibitor, full curve]	–
Fc1cccc(C[n+]2csc3ccccc32)c1	inconclusive: 50.1 µM [inhibitor, partial curve]	–
CCOc1ccc(N2CC(O)(c3cccs3)[N+]3=C2CCCC3)cc1 (stereo not drawn)	inconclusive: 89.1 µM [inhibitor, single point]	–
CSc1nsc(/C=C/Nc2ccc(O)cc2C)c1C#N	inconclusive: 70.8 µM [inhibitor, partial curve]	–
COc1ccc(C)cc1-n1c(SCC(=O)Nc2cccc(C(=O)O)c2)nc2ccccc2c1=O	inactive	–
O=C1c2cccc3c(Cl)ccc(c23)C(=O)N1O	inconclusive: 89.1 µM [inhibitor, single point]	–
Cc1ccc(NCc2cccnc2)c(Br)c1	inconclusive: 39.8 µM [inhibitor, single point]	–
CCn1c2ccccc2c2cc(NC(=O)C(=O)N3CCOCC3)ccc21	inactive	–
CCCCCCc1cc2cc(-c3nnc(-c4ccccc4OC)o3)c(=O)oc2cc1O	active: 44.7 µM	–

Compound	Potency	activity change, negative = inhibition
CN(C(=S)Nc1ccc(Oc2ccccc2)cc1)c1ccc(O)cc1	inconclusive: 50.1 µM [inhibitor, partial curve]	–
Cc1ccc([N+](=O)[O-])cc1NC(=O)C(C)NS(=O)(=O)c1ccc(F)cc1 (stereo not drawn)	inactive	–
O=C(CSc1nc2c(sc3ccccc32)c(=O)n1CCO)NCc1ccco1	inconclusive: 50.1 µM [inhibitor, partial curve]	–
CCOc1cc(/C=N/NC(=O)c2cccs2)cc([N+](=O)[O-])c1O	inconclusive: 39.8 µM [inhibitor, partial curve]	–
O=C1N(c2ccccc2)C[C@@H]2C[C@@H](c3cc4ccccc4o3)N3CCC[C@@]123	inconclusive: 70.8 µM [inhibitor, single point]	–
O=C(Nc1ccc(C2=NCCN2)cc1)c1ccc(C(=O)Nc2ccc(C3=NCCN3)cc2)c(Cl)c1	inconclusive: 100 µM [inhibitor, single point]	–
CCN(c1ccccc1)S(=O)(=O)c1cc(C(=O)Nc2ccccc2Cl)ccc1F	inconclusive: 25.1 µM [inhibitor, single point]	–
Cc1cc(C(=O)OCC(=O)N2C(C)CCCC2C)c(C)o1 (stereo not drawn)	–	inconclusive: -37% [inhibitor] [at 57.1 µM]
CS(=O)(=O)c1ccc2nc(NC(=O)c3cccc(NS(=O)(=O)c4ccc(F)c(F)c4)c3)sc2c1	inconclusive: 35.5 µM [inhibitor, single point]	–
O=C(Cc1ccc(S(=O)(=O)N2CCOCC2)s1)Nc1nc2c(s1)CCCC2	active: 35.5 µM	–
Cc1ccc(NC(=O)c2cccc(S(=O)(=O)N3CCN(c4ccc(F)cc4)CC3)c2)nc1	inconclusive: 39.8 µM [inhibitor, single point]	–
Cc1cc(=O)[nH]c(Nc2cccc(Cl)c2C)n1	inactive	–
COc1cccc(/C=N/Nc2nc(Nc3ccc([N+](=O)[O-])cc3)nc(N3CCCC3)n2)c1O	active: 50.1 µM	–
O=C1c2ccccc2C(=O)c2c1ccc(O)c2O	inconclusive: 44.7 µM [inhibitor, partial curve]	–
Cc1ccc(N=C2NC(=O)/C(=C/c3cccnc3)S2)c(C)c1	inconclusive: 3.55 µM [inhibitor, full curve, poor fit]	–
CCOC(=O)C[C@H]1c2ccc(C(F)(F)F)cc2S(=O)(=O)N1c1ccccc1	inconclusive: 79.4 µM [inhibitor, partial curve]	–
NC(=O)Cc1ccc(C(=O)CSc2nnc(-c3ccncc3)n2C2CC2)s1	inconclusive: 17.8 µM [inhibitor, full curve]	–
N#Cc1c(NC(=O)/C=C/c2ccco2)sc2c1CCCC2	inconclusive: 16.8 µM [inhibitor, partial curve]	–
COC(=O)[C@H](C)NC(=O)c1cc2c(cn1)[nH]c1ccccc12	inconclusive: 56.2 µM [inhibitor, partial curve]	–
Cc1cc(NC(=O)c2ccc(C(C)(C)C)cc2)no1	inactive	–
CN1/C(=C\C(=O)c2ccco2)C(C)(C)c2ccccc21	inconclusive: 79.4 µM [inhibitor, partial curve]	–
Cc1cc(C)c2c(=O)c(C#N)coc2c1	active: 56.2 µM	–
